# Measurements published in the supplement of paper PMC8728848.
# Some of the results follow.
# B1: SynCAM (Mus musculus) (protein)
# chain: MASAVLPSGSQCAAAAAVAAAAAPPGLRLRLLLLLLSAAALIPTGDGQNLFTKDVTVIEGEVATISCQVNKSDDSVIQLLNPNRQTIYFRDFRPLKDSRFQLLNFSSSELKVSLTNVSISDEGRYFCQLYTDPPQESYTTITVLVPPRNLMIDIQKDTAVEGEEIEVNCTAMASKPATTIRWFKGNKELKGKSEVEEWSDMYTVTSQLMLKVHKEDDGVPVICQVEHPAVTGNLQTQRYLEVQYKPQVHIQMTYPLQGLTREGDAFELTCEAIGKPQPVMVTWVRVDDEMPQHAVLSGPNLFINNLNKTDNGTYRCEASNIVGKAHSDYMLYVYDPPTTIPPP
# Assays:
# Test in all cases: glycan array binding signal (z-score within array); higher = stronger binding
# Settings in all cases: glycan notation: IUPAC condensed, linker removed
# [1] = target: Gal(b1-3)[Fuc(a1-4)]GlcNAc(b1-6)GalNAc
# In short: (§1)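 Arrays were curated from the Consortium for Functional Glycomics database, 3228 in total, and kept only where the protein sequence was available. Binding is expressed as a within-array Z-score. This score was averaged across arrays of the same protein sequence at different concentrations or buffers and across linkers, and negative values can be read as non-binding.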
# [2] = target: Gal(b1-3)[GlcNAc(b1-6)]GalNAc
# In short: as §1
# [3] = target: Gal(b1-3)[Neu5Ac(a2-6)]GalNAc
# In short: as §1
# [4] = target: Gal(b1-3)[Neu5Ac(a2-6)]GlcNAc(b1-4)Gal(b1-4)Glc
# In short: as §1
# [5] = target: Gal(b1-3)[Neu5Ac(b2-6)]GalNAc
# In short: as §1
# [6] = target: Gal(b1-4)Gal
# In short: as §1
# [7] = target: Gal(b1-4)GalNAc(a1-3)[Fuc(a1-2)]Gal(b1-4)GlcNAc
# In short: as §1
# [8] = target: Gal(b1-4)GalNAc(b1-3)[Fuc(a1-2)]Gal(b1-4)GlcNAc
# In short: as §1
# [9] = target: Gal(b1-4)Glc
# In short: as §1
# [10] = target: Gal(b1-4)Glc6S
# In short: as §1
# [11] = target: Gal(b1-4)GlcNAc
# In short: as §1
# [12] = target: Gal(b1-4)GlcNAc(a1-6)Gal(b1-4)GlcNAc
# In short: as §1
# [13] = target: Gal(b1-4)GlcNAc(b1-2)Man
# In short: as §1
# [14] = target: Gal(b1-4)GlcNAc(b1-2)Man(a1-3)Man(b1-4)GlcNAc(b1-4)GlcNAc
# In short: as §1
# [15] = target: Gal(b1-4)GlcNAc(b1-2)Man(a1-3)[Gal(b1-4)GlcNAc(b1-2)Man(a1-6)]Man(b1-4)GlcNAc(b1-4)GlcNAc
# In short: as §1
# [16] = target: Gal(b1-4)GlcNAc(b1-2)Man(a1-3)[Gal(b1-4)GlcNAc(b1-2)Man(a1-6)]Man(b1-4)GlcNAc(b1-4)[Fuc(a1-6)]GlcNAc
# In short: as §1
# [17] = target: Gal(b1-4)GlcNAc(b1-2)Man(a1-3)[Gal(b1-4)GlcNAc(b1-2)Man(a1-6)][Gal(b1-4)GlcNAc(b1-4)]Man(b1-4)GlcNAc(b1-4)[Fuc(a1-6)]GlcNAc
# In short: as §1
# [18] = target: Gal(b1-4)GlcNAc(b1-2)Man(a1-3)[Gal(b1-4)GlcNAc(b1-2)Man(a1-6)][GlcNAc(b1-4)]Man(b1-4)GlcNAc(b1-4)[Fuc(a1-6)]GlcNAc
# In short: as §1
# [19] = target: Gal(b1-4)GlcNAc(b1-2)Man(a1-3)[GlcNAc(b1-2)Man(a1-6)]Man(b1-4)GlcNAc(b1-4)GlcNAc
# In short: as §1
# [20] = target: Gal(b1-4)GlcNAc(b1-2)Man(a1-3)[GlcNAc(b1-4)][Gal(b1-4)GlcNAc(b1-2)Man(a1-6)]Man(b1-4)GlcNAc(b1-4)GlcNAc
# In short: as §1
# [21] = target: Gal(b1-4)GlcNAc(b1-2)Man(a1-3)[Man(a1-6)]Man(b1-4)GlcNAc(b1-4)GlcNAc
# In short: as §1
# [22] = target: Gal(b1-4)GlcNAc(b1-2)Man(a1-6)Man(b1-4)GlcNAc(b1-4)GlcNAc
# In short: as §1
# [23] = target: Gal(b1-4)GlcNAc(b1-2)Man(a1-6)[GlcNAc(b1-2)Man(a1-3)]Man(b1-4)GlcNAc(b1-4)GlcNAc
# In short: as §1
# [24] = target: Gal(b1-4)GlcNAc(b1-2)Man(a1-6)[Man(a1-3)]Man(b1-4)GlcNAc(b1-4)GlcNAc
# In short: as §1
# [25] = target: Gal(b1-4)GlcNAc(b1-2)[Gal(b1-4)GlcNAc(b1-4)]Man(a1-3)[Gal(b1-4)GlcNAc(b1-2)Man(a1-6)]Man(b1-4)GlcNAc(b1-4)GlcNAc
# In short: as §1
# [26] = target: Gal(b1-4)GlcNAc(b1-2)[Gal(b1-4)GlcNAc(b1-4)]Man(a1-3)[Gal(b1-4)GlcNAc(b1-2)[Gal(b1-4)GlcNAc(b1-6)]Man(a1-6)]Man(b1-4)GlcNAc(b1-4)GlcNAc
# In short: as §1
# [27] = target: Gal(b1-4)GlcNAc(b1-2)[Gal(b1-4)GlcNAc(b1-4)]Man(a1-3)[GlcNAc(b1-4)][Gal(b1-4)GlcNAc(b1-2)Man(a1-6)]Man(b1-4)GlcNAc(b1-4)GlcNAc
# In short: as §1
# [28] = target: Gal(b1-4)GlcNAc(b1-2)[Gal(b1-4)GlcNAc(b1-4)]Man(a1-3)[GlcNAc(b1-4)][Gal(b1-4)GlcNAc(b1-2)[Gal(b1-4)GlcNAc(b1-6)]Man(a1-6)]Man(b1-4)GlcNAc(b1-4)GlcNAc
# In short: as §1
# [29] = target: Gal(b1-4)GlcNAc(b1-2)[Gal(b1-4)GlcNAc(b1-6)]Man(a1-6)[Gal(b1-4)GlcNAc(b1-2)Man(a1-3)]Man(b1-4)GlcNAc(b1-4)GlcNAc
# In short: as §1
# [30] = target: Gal(b1-4)GlcNAc(b1-2)[Gal(b1-4)GlcNAc(b1-6)]Man(a1-6)[Gal(b1-4)GlcNAc(b1-2)Man(a1-3)]Man(b1-4)GlcNAc(b1-4)[Fuc(a1-6)]GlcNAc
# In short: as §1
# [31] = target: Gal(b1-4)GlcNAc(b1-2)[Gal(b1-4)GlcNAc(b1-6)]Man(a1-6)[GlcNAc(b1-4)][Gal(b1-4)GlcNAc(b1-2)Man(a1-3)]Man(b1-4)GlcNAc(b1-4)GlcNAc
# In short: as §1
# [32] = target: Gal(b1-4)GlcNAc(b1-2)[Gal(b1-4)GlcNAc(b1-6)]Man(a1-6)[GlcNAc(b1-4)][Gal(b1-4)GlcNAc(b1-2)[Gal(b1-4)GlcNAc(b1-4)]Man(a1-3)]Man(b1-4)GlcNAc(b1-4)[Fuc(a1-6)]GlcNAc
# In short: as §1
# [33] = target: Gal(b1-4)GlcNAc(b1-3)Gal(b1-3)GalNAc
# In short: as §1
# [34] = target: Gal(b1-4)GlcNAc(b1-3)Gal(b1-3)GlcNAc
# In short: as §1
# [35] = target: Gal(b1-4)GlcNAc(b1-3)Gal(b1-4)Glc
# In short: as §1
# [36] = target: Gal(b1-4)GlcNAc(b1-3)Gal(b1-4)GlcNAc
# In short: as §1
# [37] = target: Gal(b1-4)GlcNAc(b1-3)Gal(b1-4)GlcNAc(b1-2)Man(a1-3)[Gal(b1-4)GlcNAc(b1-3)Gal(b1-4)GlcNAc(b1-2)Man(a1-6)]Man(b1-4)GlcNAc(b1-4)GlcNAc
# In short: as §1
# [38] = target: Gal(b1-4)GlcNAc(b1-3)Gal(b1-4)GlcNAc(b1-2)Man(a1-3)[Gal(b1-4)GlcNAc(b1-3)Gal(b1-4)GlcNAc(b1-2)Man(a1-6)]Man(b1-4)GlcNAc(b1-4)[Fuc(a1-6)]GlcNAc
# In short: as §1
binder,measurement,setting,value
B1,glycan array binding signal (z-score),[1],0.272
same,glycan array binding signal (z-score),[2],0.464
same,glycan array binding signal (z-score),[3],-0.488
same,glycan array binding signal (z-score),[4],-0.76
same,glycan array binding signal (z-score),[5],-0.562
same,glycan array binding signal (z-score),[6],-0.298
same,glycan array binding signal (z-score),[7],-0.876
same,glycan array binding signal (z-score),[8],-0.623
same,glycan array binding signal (z-score),[9],-0.359
same,glycan array binding signal (z-score),[10],0.23
same,glycan array binding signal (z-score),[11],-1
same,glycan array binding signal (z-score),[12],-0.529
same,glycan array binding signal (z-score),[13],-0.133
same,glycan array binding signal (z-score),[14],-1.2
same,glycan array binding signal (z-score),[15],-0.664
same,glycan array binding signal (z-score),[16],-1.12
same,glycan array binding signal (z-score),[17],-0.98
same,glycan array binding signal (z-score),[18],0.19
same,glycan array binding signal (z-score),[19],-1.32
same,glycan array binding signal (z-score),[20],-0.51
same,glycan array binding signal (z-score),[21],-1.75
same,glycan array binding signal (z-score),[22],-0.469
same,glycan array binding signal (z-score),[23],0.098
same,glycan array binding signal (z-score),[24],-0.438
same,glycan array binding signal (z-score),[25],-0.702
same,glycan array binding signal (z-score),[26],-0.042
same,glycan array binding signal (z-score),[27],-1.17
same,glycan array binding signal (z-score),[28],-0.954
same,glycan array binding signal (z-score),[29],1.57
same,glycan array binding signal (z-score),[30],0.779
same,glycan array binding signal (z-score),[31],0.244
same,glycan array binding signal (z-score),[32],0.502
same,glycan array binding signal (z-score),[33],-0.9
same,glycan array binding signal (z-score),[34],-1.11
same,glycan array binding signal (z-score),[35],-0.237
same,glycan array binding signal (z-score),[36],0.298
same,glycan array binding signal (z-score),[37],2.96
same,glycan array binding signal (z-score),[38],0.981

# Two successive records already listed, quoted:
binder,measurement,setting,value
B1,glycan array binding signal (z-score),[20],-0.51
same,glycan array binding signal (z-score),[21],-1.75
